Some of the results follow.
What was measured:
Experiment in all cases: log2 fold change, soluble protein after heating vs DMSO (PISA); higher = thermal stabilisation; K562 lysate, 10 uM; active = over 0.2 and 3.5 SD of the protein, either way, in both replicates (recomputed)
vemurafenib = compound: CCCS(=O)(=O)Nc1ccc(F)c(C(=O)c2c[nH]c3ncc(-c4ccc(Cl)cc4)cc23)c1F [vemurafenib]
Outline: (§1)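 Values give the log-two fold change in thermal stability against solvent controls, from duplicates. Crude K562 extract at 1 mg/mL protein, made by dounce homogenisation in PBS pH 7.4 with 1 mM MgCl2, was treated with 10 μM compound for 30 min. After 3 min heating across 48°C-58°C, aliquots were pooled, adjusted to 0.5% NP-40 at 4°C and centrifuged at 21,000xg for 90 min. The supernatant was measured by TMTpro 16plex LC-MS/MS with channel sums equalised.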

By UniProt entry, the sequences of proteins in these tests, tags left out. Where a name states a change or a piece, a line headed by the entry shows the natural chain unless it says otherwise.
UniProt O43752: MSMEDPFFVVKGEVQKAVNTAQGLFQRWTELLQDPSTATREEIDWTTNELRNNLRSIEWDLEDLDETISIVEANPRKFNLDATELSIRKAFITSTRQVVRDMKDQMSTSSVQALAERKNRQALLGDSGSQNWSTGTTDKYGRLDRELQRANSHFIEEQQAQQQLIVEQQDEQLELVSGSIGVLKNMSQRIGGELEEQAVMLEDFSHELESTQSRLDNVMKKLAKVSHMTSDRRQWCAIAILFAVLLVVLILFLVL
UniProt P55854, whole entry, looked up: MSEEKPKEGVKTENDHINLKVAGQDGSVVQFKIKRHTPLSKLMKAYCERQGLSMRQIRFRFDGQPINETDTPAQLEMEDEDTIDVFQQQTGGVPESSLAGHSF
UniProt Q9UNK0: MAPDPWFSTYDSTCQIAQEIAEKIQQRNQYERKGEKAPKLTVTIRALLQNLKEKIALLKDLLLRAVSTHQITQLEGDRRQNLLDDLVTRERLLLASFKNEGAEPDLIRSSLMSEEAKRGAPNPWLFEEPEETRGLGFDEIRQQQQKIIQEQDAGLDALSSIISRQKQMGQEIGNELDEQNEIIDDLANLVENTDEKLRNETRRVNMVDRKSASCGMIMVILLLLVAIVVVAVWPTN
UniProt O15260: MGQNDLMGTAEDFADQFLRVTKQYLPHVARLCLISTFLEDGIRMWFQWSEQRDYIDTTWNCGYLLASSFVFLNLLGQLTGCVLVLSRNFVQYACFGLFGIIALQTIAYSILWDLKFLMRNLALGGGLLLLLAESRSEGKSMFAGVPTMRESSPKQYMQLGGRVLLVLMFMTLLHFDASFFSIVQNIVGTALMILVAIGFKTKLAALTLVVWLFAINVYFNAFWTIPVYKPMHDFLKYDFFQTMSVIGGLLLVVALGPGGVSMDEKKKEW
UniProt Q8NBJ7: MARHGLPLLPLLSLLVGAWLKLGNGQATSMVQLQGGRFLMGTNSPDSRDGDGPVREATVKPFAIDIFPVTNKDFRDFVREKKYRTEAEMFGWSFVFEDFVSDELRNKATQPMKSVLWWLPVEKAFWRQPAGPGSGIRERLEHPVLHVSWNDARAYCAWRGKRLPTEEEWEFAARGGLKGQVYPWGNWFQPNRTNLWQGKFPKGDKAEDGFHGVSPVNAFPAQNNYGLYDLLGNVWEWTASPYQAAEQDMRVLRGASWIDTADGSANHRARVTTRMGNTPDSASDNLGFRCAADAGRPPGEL
UniProt Q5VSL9: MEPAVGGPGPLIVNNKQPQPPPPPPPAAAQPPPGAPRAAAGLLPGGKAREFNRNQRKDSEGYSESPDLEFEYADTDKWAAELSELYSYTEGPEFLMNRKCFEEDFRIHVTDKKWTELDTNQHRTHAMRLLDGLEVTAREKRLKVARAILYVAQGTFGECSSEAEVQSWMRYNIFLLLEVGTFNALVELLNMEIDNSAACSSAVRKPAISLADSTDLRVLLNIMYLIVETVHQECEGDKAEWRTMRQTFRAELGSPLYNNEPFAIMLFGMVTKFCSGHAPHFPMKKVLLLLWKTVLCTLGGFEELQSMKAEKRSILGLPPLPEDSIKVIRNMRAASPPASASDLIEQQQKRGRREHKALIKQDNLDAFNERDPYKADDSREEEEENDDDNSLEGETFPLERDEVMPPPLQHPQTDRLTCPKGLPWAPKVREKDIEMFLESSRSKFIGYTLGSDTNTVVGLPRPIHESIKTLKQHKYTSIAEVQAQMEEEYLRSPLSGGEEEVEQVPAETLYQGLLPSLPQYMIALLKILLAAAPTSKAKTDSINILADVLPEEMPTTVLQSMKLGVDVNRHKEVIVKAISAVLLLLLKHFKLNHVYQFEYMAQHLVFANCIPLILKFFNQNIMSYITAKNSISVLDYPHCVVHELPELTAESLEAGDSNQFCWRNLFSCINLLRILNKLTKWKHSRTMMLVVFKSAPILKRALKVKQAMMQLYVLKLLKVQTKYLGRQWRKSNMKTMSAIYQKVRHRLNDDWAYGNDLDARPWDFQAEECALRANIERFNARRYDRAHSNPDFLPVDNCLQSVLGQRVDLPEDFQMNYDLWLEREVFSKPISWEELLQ
UniProt O15056: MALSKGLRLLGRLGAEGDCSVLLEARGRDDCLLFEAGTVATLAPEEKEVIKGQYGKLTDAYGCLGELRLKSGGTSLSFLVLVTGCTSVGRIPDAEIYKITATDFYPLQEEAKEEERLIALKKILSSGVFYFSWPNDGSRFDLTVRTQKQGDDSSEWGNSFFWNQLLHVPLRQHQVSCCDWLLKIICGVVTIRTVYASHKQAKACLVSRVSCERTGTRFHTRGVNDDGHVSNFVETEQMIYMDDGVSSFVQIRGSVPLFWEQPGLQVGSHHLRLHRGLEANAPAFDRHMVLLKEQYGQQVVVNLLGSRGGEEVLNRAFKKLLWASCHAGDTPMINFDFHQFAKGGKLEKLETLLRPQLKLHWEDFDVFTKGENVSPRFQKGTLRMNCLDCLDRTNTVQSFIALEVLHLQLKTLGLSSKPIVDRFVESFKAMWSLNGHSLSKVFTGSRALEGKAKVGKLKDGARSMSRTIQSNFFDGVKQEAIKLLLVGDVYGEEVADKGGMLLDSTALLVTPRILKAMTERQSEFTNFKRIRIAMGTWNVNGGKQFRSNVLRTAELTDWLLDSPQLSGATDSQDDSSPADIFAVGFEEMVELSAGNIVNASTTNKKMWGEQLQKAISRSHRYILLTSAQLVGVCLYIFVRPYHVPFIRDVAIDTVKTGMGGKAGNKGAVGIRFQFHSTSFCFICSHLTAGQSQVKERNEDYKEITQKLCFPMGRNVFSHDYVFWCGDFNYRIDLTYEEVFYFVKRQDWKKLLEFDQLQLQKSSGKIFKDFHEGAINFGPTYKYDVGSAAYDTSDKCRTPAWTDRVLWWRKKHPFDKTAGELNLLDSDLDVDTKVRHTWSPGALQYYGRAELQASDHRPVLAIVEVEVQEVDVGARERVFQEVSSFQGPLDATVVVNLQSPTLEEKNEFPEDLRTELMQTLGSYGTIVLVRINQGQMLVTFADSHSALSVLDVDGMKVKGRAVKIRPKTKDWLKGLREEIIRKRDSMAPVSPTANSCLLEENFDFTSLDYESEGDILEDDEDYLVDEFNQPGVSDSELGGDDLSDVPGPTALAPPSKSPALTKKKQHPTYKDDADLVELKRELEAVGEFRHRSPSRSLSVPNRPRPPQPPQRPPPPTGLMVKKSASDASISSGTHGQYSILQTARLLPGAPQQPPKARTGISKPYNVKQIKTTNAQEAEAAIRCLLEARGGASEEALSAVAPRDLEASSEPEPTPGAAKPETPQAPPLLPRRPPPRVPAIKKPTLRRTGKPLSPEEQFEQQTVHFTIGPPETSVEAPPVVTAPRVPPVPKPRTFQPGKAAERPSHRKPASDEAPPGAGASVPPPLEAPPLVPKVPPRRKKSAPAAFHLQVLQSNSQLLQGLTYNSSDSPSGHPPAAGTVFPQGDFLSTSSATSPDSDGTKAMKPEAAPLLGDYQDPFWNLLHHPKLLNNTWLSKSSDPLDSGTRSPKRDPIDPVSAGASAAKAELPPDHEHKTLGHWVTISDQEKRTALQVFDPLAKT
UniProt Q7RTN6: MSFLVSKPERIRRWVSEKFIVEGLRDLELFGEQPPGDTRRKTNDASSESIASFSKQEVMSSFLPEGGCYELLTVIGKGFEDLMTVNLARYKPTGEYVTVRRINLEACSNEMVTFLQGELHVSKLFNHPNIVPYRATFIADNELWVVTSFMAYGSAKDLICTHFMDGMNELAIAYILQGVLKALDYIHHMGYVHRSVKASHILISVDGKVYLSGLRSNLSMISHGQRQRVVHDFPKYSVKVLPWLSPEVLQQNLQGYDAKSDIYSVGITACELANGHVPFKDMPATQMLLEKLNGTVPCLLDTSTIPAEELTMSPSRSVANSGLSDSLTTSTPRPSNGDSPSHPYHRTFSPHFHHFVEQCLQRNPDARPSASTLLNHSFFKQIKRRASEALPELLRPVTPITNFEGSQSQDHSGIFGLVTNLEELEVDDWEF
UniProt P31948, whole entry, looked up: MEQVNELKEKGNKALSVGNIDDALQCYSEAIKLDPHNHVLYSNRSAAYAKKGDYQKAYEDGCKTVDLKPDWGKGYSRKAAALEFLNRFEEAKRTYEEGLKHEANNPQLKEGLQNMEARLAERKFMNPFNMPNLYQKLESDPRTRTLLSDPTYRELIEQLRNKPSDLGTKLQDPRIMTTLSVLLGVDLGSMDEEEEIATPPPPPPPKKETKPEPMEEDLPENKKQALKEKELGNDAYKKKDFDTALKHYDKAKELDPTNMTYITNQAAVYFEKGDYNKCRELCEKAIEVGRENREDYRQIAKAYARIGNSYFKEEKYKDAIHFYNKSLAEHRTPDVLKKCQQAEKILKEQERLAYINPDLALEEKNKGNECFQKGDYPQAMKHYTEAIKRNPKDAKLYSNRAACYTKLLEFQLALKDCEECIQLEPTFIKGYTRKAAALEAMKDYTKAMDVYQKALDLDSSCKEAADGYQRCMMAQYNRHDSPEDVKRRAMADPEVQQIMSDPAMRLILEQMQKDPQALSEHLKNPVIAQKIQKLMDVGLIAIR
UniProt Q86TM6, whole entry, looked up: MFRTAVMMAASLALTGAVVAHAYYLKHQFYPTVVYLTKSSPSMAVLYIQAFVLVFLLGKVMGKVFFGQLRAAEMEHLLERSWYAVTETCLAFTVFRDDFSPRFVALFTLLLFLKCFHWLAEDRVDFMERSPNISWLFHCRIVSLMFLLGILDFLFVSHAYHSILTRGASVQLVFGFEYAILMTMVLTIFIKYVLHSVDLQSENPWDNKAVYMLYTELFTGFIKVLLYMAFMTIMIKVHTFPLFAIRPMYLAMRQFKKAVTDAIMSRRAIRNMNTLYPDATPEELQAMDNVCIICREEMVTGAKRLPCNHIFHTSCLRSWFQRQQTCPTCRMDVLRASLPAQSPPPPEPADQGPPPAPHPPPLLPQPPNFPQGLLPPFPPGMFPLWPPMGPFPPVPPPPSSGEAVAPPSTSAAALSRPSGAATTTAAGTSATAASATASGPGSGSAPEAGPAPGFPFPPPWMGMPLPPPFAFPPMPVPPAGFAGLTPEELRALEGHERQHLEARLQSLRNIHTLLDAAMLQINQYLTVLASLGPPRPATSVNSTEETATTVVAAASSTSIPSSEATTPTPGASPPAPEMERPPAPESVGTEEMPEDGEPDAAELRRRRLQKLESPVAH
UniProt Q9H7L9: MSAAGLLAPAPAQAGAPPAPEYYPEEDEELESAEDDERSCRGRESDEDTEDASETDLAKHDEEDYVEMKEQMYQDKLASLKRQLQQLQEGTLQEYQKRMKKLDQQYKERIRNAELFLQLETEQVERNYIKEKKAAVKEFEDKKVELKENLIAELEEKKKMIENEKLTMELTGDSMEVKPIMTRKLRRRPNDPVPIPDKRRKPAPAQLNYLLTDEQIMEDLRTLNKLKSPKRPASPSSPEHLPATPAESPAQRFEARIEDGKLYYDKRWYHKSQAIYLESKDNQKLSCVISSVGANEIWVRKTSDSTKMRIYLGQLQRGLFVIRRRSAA
UniProt Q8TCJ2: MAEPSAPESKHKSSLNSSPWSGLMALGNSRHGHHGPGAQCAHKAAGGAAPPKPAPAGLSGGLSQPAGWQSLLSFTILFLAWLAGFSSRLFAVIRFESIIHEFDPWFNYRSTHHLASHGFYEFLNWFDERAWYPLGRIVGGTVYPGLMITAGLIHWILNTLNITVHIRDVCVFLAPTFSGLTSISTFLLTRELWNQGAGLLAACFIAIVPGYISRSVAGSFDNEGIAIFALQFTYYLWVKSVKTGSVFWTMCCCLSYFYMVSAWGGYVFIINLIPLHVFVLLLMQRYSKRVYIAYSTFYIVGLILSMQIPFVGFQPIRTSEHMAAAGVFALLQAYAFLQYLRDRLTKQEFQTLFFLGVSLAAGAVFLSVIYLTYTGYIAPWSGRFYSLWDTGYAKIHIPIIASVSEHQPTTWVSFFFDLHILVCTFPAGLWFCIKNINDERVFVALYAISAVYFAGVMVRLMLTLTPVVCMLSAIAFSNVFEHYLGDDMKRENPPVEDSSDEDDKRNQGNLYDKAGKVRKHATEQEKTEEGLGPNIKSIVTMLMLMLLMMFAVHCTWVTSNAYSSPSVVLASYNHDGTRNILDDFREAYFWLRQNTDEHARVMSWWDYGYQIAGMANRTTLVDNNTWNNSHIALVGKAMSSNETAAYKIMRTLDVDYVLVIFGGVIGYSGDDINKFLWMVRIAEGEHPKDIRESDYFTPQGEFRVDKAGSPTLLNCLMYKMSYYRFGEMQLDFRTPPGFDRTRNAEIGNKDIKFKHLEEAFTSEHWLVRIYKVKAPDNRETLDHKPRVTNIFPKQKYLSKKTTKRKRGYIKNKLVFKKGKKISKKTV
UniProt Q1ZZU3: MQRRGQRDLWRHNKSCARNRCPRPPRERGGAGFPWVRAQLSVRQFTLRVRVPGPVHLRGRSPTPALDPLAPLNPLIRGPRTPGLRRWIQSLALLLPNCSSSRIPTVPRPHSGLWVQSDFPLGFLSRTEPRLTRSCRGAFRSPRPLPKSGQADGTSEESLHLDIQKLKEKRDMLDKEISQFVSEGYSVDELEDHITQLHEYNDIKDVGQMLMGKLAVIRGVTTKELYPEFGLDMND

[1] = compound: CCCS(=O)(=O)Nc1ccc(F)c(C(=O)c2c[nH]c3ncc(Cl)cc23)c1F
Outline: as §1

barasertib = compound: CCN(CCCOc1ccc2c(Nc3cc(CC(=O)Nc4cccc(F)c4)[nH]n3)ncnc2c1)CCOP(=O)(O)O [barasertib]
Outline: as §1

[2] = compound: CC[C@@H]1C(=O)N(C)c2cnc(Nc3ccc(C(=O)NC4CCN(C)CC4)cc3OC)nc2N1C1CCCC1
Outline: as §1

volasertib = compound: CC[C@@H]1C(=O)N(C)c2cnc(Nc3ccc(C(=O)N[C@H]4CC[C@H](N5CCN(CC6CC6)CC5)CC4)cc3OC)nc2N1C(C)C [volasertib]
Outline: as §1

[3] = compound: CCn1c(C(=O)N(C2CC2)C2CC2)cc2c3c(ncn3C)c(Nc3cc(C)n(C)n3)nc21
Outline: as §1

[4] = compound: CCn1cc(-c2ccnc3[nH]c(-c4cccc(CN(C)C)c4)cc23)c(-c2ccc(NC(=O)N(C)C)cc2)n1
Outline: as §1

[5] = compound: CN1CCC(CNc2ccc3ncc(-c4cccc(OC(F)(F)F)c4)n3n2)CC1
Outline: as §1

saracatinib = compound: CN1CCN(CCOc2cc(OC3CCOCC3)c3c(Nc4c(Cl)ccc5c4OCO5)ncnc3c2)CC1 [saracatinib]
Outline: as §1

sotrastaurin = compound: CN1CCN(c2nc(C3=C(c4c[nH]c5ccccc45)C(=O)NC3=O)c3ccccc3n2)CC1 [sotrastaurin]
Outline: as §1

Measured: log2 fold change

TAF1A (UniProt Q15573)
inactive: vemurafenib 0.004

STXBP1 (UniProt P61764)
inactive: vemurafenib 0.072 | [1] -0.003 | barasertib -0.014 | [2] -0.026 | volasertib -0.012 | [3] -0.005 | [4] -0.167 | [5] 0.016 | saracatinib 0.03 | sotrastaurin 0.017

STX6 (UniProt O43752)
inactive: vemurafenib -0.053 | [1] 0.011 | barasertib -0.01 | [2] -0.005 | volasertib -0.006 | [3] 0.004 | [4] 0.016 | [5] -0.049 | saracatinib 0.002 | sotrastaurin 0.007

SUMO3 isoform 2 (UniProt P55854)
inactive: vemurafenib -0.001 | [1] -0.025 | barasertib 0.008 | [2] 0.056 | volasertib 0.055 | [3] -0.024 | [4] -0.108 | [5] 0.023 | saracatinib 0 | sotrastaurin -0.049

Pulled one by one from above (3):
STXBP1 (UniProt P61764)
inactive: vemurafenib 0.072 | [1] -0.003 | barasertib -0.014 | [2] -0.026 | volasertib -0.012 | [3] -0.005 | [4] -0.167 | [5] 0.016 | saracatinib 0.03 | sotrastaurin 0.017

STX6 (UniProt O43752)
inactive: vemurafenib -0.053 | [1] 0.011 | barasertib -0.01 | [2] -0.005 | volasertib -0.006 | [3] 0.004 | [4] 0.016 | [5] -0.049 | saracatinib 0.002 | sotrastaurin 0.007

SUMO3 isoform 2 (UniProt P55854)
inactive: vemurafenib -0.001 | [1] -0.025 | barasertib 0.008 | [2] 0.056 | volasertib 0.055 | [3] -0.024 | [4] -0.108 | [5] 0.023 | saracatinib 0 | sotrastaurin -0.049

The list continues:

TAF15 (UniProt Q92804)
inactive: vemurafenib -0.016 | [1] -0.022 | barasertib -0.03 | [2] 0.014 | volasertib 0.023 | [3] -0.059 | [4] 0.068 | [5] -0.014 | saracatinib -0.016 | sotrastaurin 0.025

STX8 (UniProt Q9UNK0)
inactive: vemurafenib -0.089 | [1] -0.003 | barasertib -0.024 | [2] 0.017 | volasertib -0.009 | [3] 0.068 | [4] -0.048 | [5] 0.018 | saracatinib 0 | sotrastaurin -0.002

SURF4 (UniProt O15260)
inactive: vemurafenib -0.01 | [1] -0.02 | barasertib 0.027 | [2] 0.038 | volasertib 0.031 | [3] 0.021 | [4] -0.184 | [5] 0.079 | saracatinib 0.044 | sotrastaurin 0.02

STX16 isoform 2 (UniProt O14662)
inactive: vemurafenib 0.074 | [1] 0.016 | barasertib 0.005 | [2] 0.067 | volasertib -0.048 | [3] 0.026 | [4] -0.047 | [5] -0.042 | saracatinib 0.073 | sotrastaurin 0.019

STOML2 (UniProt Q9UJZ1)
inactive: vemurafenib 0.026 | [1] 0.009 | barasertib 0.115 | [2] 0.043 | volasertib 0.033 | [3] -0.015 | [4] 0.111 | [5] -0.047 | saracatinib -0.01 | sotrastaurin -0.002

SUGT1 (UniProt Q9Y2Z0)
inactive: vemurafenib -0.004 | [1] 0.01 | barasertib -0.035 | [2] 0.016 | volasertib 0.018 | [3] 0.021 | [4] 0.257 | [5] -0.042 | saracatinib -0.008 | sotrastaurin -0.024

STK36 (UniProt Q9NRP7)
inactive: vemurafenib 0.188 | [1] 0.038 | barasertib -0.073 | [2] 0.302 | volasertib 0.01 | [3] -0.445 | [4] -0.532 | [5] 0.442 | saracatinib 0.077 | sotrastaurin -0.072

SUMF2 (UniProt Q8NBJ7)
inactive: vemurafenib -0.02 | [1] -0.008 | barasertib -0.093 | [2] 0.089 | volasertib -0.021 | [3] -0.031 | [4] -0.102 | [5] 0.01 | saracatinib 0.015 | sotrastaurin 0.024

STRIP1 (UniProt Q5VSL9)
inactive: vemurafenib 0.018 | [1] -0.002 | barasertib 0.032 | [2] -0.005 | volasertib -0.008 | [3] 0.02 | [4] -0.009 | [5] -0.015 | saracatinib -0.011 | sotrastaurin -0.003

SYNJ2 (UniProt O15056)
inactive: vemurafenib 0.008 | [1] 0.001 | barasertib 0.046 | [2] -0.019 | volasertib -0.052 | [3] 0.003 | [4] 0.032 | [5] -0.054 | saracatinib 0.02 | sotrastaurin 0.016

SUN2 isoform 2 (UniProt Q9UH99)
inactive: vemurafenib -0.064 | [1] 0.006 | barasertib 0.13 | [2] -0.065 | volasertib -0.077 | [3] 0.247 | [4] 0.106 | [5] -0.102 | saracatinib 0.074 | sotrastaurin -0.094

SUCLG2 (UniProt Q96I99)
inactive: vemurafenib 0.025 | [1] 0.012 | barasertib 0.052 | [2] -0.034 | volasertib -0.025 | [3] 0.025 | [4] -0.052 | [5] 0.018 | saracatinib -0.007 | sotrastaurin 0.027

STX7 (UniProt O15400)
inactive: vemurafenib 0.007 | [1] -0.006 | barasertib 0.015 | [2] 0.033 | volasertib 0.026 | [3] -0.038 | [4] -0.042 | [5] 0.046 | saracatinib -0.003 | sotrastaurin 0.014

SUCLA2 (UniProt Q9P2R7)
inactive: vemurafenib -0.003 | [1] 0.003 | barasertib 0.008 | [2] -0.041 | volasertib -0.04 | [3] 0.006 | [4] -0.174 | [5] 0.066 | saracatinib 0.006 | sotrastaurin 0.001

STX4 (UniProt Q12846)
inactive: vemurafenib -0.057 | [1] -0.016 | barasertib -0.053 | [2] -0.006 | volasertib 0.014 | [3] 0.014 | [4] 0.087 | [5] 0.014 | saracatinib 0.024 | sotrastaurin 0.018

TACC3 (UniProt C9JWI7)
inactive: vemurafenib 0.026

STRADA (UniProt Q7RTN6)
inactive: vemurafenib -0.01 | [1] 0.093 | barasertib -0.029 | [2] 0.044 | volasertib -0.011 | [3] -0.03 | [4] -0.024 | [5] 0.034 | saracatinib -0.009 | sotrastaurin -0.039

STIP1 isoform 2 (UniProt P31948)
inactive: vemurafenib -0.026 | [1] -0.015 | barasertib -0.024 | [2] -0.003 | volasertib 0.036 | [3] 0.003 | [4] 0.137 | [5] -0.065 | saracatinib -0.001 | sotrastaurin -0.012

SYVN1 (UniProt Q86TM6)
inactive: vemurafenib 0.034 | [1] -0.006 | barasertib 0.05 | [2] 0.014 | volasertib 0.019 | [3] 0.018 | [4] 0.023 | [5] -0.034 | saracatinib 0.018 | sotrastaurin -0.017

SYNCRIP (UniProt O60506)
inactive: vemurafenib -0.01 | [1] 0.017 | barasertib -0.008 | [2] -0.02 | volasertib 0.007 | [3] 0.004 | [4] 0.026 | [5] -0.025 | saracatinib 0.004 | sotrastaurin 0

SUDS3 (UniProt Q9H7L9)
inactive: vemurafenib -0.04 | [1] 0.032 | barasertib 0.02 | [2] 0.023 | volasertib 0.018 | [3] -0.043 | [4] -0.029 | [5] 0.02 | saracatinib 0.02 | sotrastaurin -0.007

TADA3 (UniProt O75528)
inactive: vemurafenib -0.007 | [1] 0.004 | barasertib 0.002 | [2] 0.008 | volasertib -0.006 | [3] -0.022 | [4] -0.122 | [5] 0.006 | saracatinib -0.017 | sotrastaurin -0.012

STRAP isoform 2 (UniProt Q9Y3F4)
inactive: vemurafenib 0.011 | [1] -0.001 | barasertib -0.013 | [2] 0.018 | volasertib 0.018 | [3] -0.023 | [4] 0.002 | [5] -0.001 | saracatinib -0.011 | sotrastaurin -0.01

TAF10 (UniProt Q12962)
inactive: vemurafenib -0.025 | [1] 0.012 | barasertib 0.027 | [2] 0.015 | volasertib 0.027 | [3] -0.029 | [4] -0.028 | [5] -0.031 | saracatinib -0.093 | sotrastaurin 0.021

STT3B (UniProt Q8TCJ2)
inactive: vemurafenib -0.012 | [1] 0.001 | barasertib -0.023 | [2] -0.02 | volasertib 0.023 | [3] 0.011 | [4] -0.121 | [5] 0.133 | saracatinib 0.078 | sotrastaurin 0.048

SWI5 (UniProt Q1ZZU3)
inactive: vemurafenib 0.042 | [1] 0.039 | barasertib 0 | [2] 0.008 | volasertib 0.071 | [3] -0.068 | [4] -0.279 | [5] 0.003 | saracatinib -0.002 | sotrastaurin -0.018

STUB1 (UniProt Q9UNE7)
inactive: vemurafenib 0.01 | [1] 0.02 | barasertib -0.007 | [2] -0.072 | volasertib -0.051 | [3] 0.018 | [4] -0.015 | [5] -0.03 | saracatinib 0.006 | sotrastaurin 0.004
